These are yes or no findings as the source states them, for the method shown. Binding seen in cells or lysates may run through a third protein. A yes stands for co-enrichment or nearness to the bait. Other partners may have been found. Where a sequence is shown, tags or fusion partners need not be part of it.
Molecular target: T1, BASP1 that contains a C-terminal HA tag (UniProt P80723)
T1 sequence: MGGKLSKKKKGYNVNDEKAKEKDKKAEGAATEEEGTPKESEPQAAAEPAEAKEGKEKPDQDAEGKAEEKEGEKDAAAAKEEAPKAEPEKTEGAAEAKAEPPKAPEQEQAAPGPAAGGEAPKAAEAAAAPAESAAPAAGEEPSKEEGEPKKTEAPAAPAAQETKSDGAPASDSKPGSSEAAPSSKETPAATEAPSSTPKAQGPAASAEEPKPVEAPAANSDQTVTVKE
Assay: affinity purification with mass spectrometry; anti-HA immunoprecipitation from nuclear extracts of B-K562 (BASP1-HA) and V-K562 (empty pcDNA3) cells; Orbitrap mass spectrometry of the immunoprecipitates

The chains behind the UniProt entries cited, without tags or fusion partners. Where a name states a change or a piece, a line headed by the entry shows the natural chain unless it says otherwise.
UniProt P06396: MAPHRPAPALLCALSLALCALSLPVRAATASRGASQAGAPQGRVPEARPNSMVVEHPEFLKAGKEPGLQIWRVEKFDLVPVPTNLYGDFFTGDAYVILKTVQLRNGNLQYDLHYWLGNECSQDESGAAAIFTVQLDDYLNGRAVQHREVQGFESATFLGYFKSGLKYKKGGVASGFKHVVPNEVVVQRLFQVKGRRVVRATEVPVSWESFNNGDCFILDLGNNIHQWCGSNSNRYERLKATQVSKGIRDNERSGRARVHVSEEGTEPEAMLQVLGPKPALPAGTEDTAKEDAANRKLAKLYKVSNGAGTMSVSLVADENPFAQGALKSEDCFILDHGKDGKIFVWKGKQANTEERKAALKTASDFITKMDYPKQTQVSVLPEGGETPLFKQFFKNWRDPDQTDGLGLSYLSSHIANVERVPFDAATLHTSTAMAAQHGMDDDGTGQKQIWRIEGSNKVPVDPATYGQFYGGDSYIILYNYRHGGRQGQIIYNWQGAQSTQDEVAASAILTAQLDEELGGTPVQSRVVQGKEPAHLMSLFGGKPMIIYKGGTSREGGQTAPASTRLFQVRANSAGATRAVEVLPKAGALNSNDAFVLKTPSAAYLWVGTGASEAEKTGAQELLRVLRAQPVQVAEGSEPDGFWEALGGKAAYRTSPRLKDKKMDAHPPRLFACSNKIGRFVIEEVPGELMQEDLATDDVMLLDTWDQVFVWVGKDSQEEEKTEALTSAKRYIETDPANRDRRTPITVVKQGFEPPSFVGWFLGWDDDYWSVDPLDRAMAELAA

binding: binds
Substance: gelsolin (from UniProt P06396)

Source: publication PMC5520704
